Source: PubChem BioAssay AID1224830 (NIAID, 2016)

Screen: 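Host factors that control LPS-induced TNF expression in human macrophages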 (primary screen)
Cells: human THP-1 monocytic leukaemia cells, TNF dual-luciferase reporter clone, PMA-differentiated to macrophage-like cells
Knock-down reagent: siRNA pool against human genes, 50 nM
Time to read-out: LPS for 4 h, given about 3 days after siRNA transfection
Challenge: bacterial LPS (TLR4 ligand), 10 ng/ml
Detection: 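Ratio of firefly to renilla light, scaled to the plate median and expressed as a robust z-score per replicate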
Reading the numbers: TNF reporter robust z-score: higher = stronger TNF reporter response to LPS
Call rule: 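a well is active when its z-score exceeds 2.8 or falls below -1.5; control wells carry no call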
Here is one part, drawn at random, of about 18,000 deposited reagents. About 2,900 of them (16%) were called active. 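Calls are made per well; low scores hint the gene aids the LPS response, high scores that it dampens it.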 Unmarked entries are inactive. Repeated entries: four replicate wells of each siRNA pool.

Knock-down of GYG1 resulted in: TNF reporter robust z-score -0.4.
GYG1 showed TNF reporter robust z-score 0.75.
Against GYG1 the deposit lists TNF reporter robust z-score -0.24.
After knock-down of GYG1, the screen gave TNF reporter robust z-score 1.82.
With knock-down of GLRX, the record shows TNF reporter robust z-score -0.15.
GLRX showed TNF reporter robust z-score 0.07.
For GLRX the deposit lists TNF reporter robust z-score -0.27.
GLRX scored TNF reporter robust z-score -0.44.
With knock-down of PKDREJ, the screen gave TNF reporter robust z-score -1.15.
PKDREJ gave TNF reporter robust z-score 0.99.
Depletion of PKDREJ came out at: TNF reporter robust z-score 0.24.
Knock-down of PKDREJ came out at: TNF reporter robust z-score 1.03.
KIAA1143 gave TNF reporter robust z-score -0.11.
Knock-down of KIAA1143 resulted in: TNF reporter robust z-score 0.11.
Knock-down of KIAA1143 came out at: TNF reporter robust z-score 2.02.
Against KIAA1143 the deposit lists TNF reporter robust z-score -0.53.
After knock-down of FITM1 the results were TNF reporter robust z-score -0.41.
FITM1 gave TNF reporter robust z-score 0.15.
With knock-down of FITM1, the screen gave TNF reporter robust z-score 0.03.
Against FITM1, the entry reads TNF reporter robust z-score 0.07.
Knock-down of SPAG6 came out at: TNF reporter robust z-score -0.54.
Silencing of SPAG6 gave: TNF reporter robust z-score 0.18.
SPAG6 scored TNF reporter robust z-score -0.2.
Depletion of SPAG6 came out at: TNF reporter robust z-score 0.34.
With knock-down of CD40 the results were TNF reporter robust z-score 2.03.
Knock-down of CD40 resulted in: TNF reporter robust z-score 1.35.
With knock-down of CD40, the screen gave TNF reporter robust z-score 1.33.
CD40 showed TNF reporter robust z-score 1.89.
Depletion of CCL4 resulted in: TNF reporter robust z-score 0.49.
CCL4 showed TNF reporter robust z-score 0.22.
Silencing of CCL4 came out at: TNF reporter robust z-score -0.43.
After knock-down of CCL4, the screen gave TNF reporter robust z-score -0.46.
Against SLC17A8, the entry reads TNF reporter robust z-score -2.03 (active).
After knock-down of SLC17A8 the results were TNF reporter robust z-score -0.86.
SLC17A8 showed TNF reporter robust z-score -0.78.
After knock-down of SLC17A8, the record shows TNF reporter robust z-score -0.82.
Depletion of MRGPRD gave: TNF reporter robust z-score 0.64.
MRGPRD showed TNF reporter robust z-score 0.78.
After knock-down of MRGPRD, the screen gave TNF reporter robust z-score 0.17.
Depletion of MRGPRD came out at: TNF reporter robust z-score 0.6.
Knock-down of KCTD1 came out at: TNF reporter robust z-score 0.69.
After knock-down of KCTD1, the record shows TNF reporter robust z-score 1.84.
Silencing of KCTD1 came out at: TNF reporter robust z-score 2.51.
For KCTD1, the values are TNF reporter robust z-score 2.9 (active).
With knock-down of TUT7, the screen gave TNF reporter robust z-score -0.29.
For TUT7, the entry reads TNF reporter robust z-score -1.47.
TUT7 showed TNF reporter robust z-score -1.97 (active).
Against TUT7 the deposit lists TNF reporter robust z-score -1.61 (active).

8 entries already listed, ordered by “TNF reporter robust z-score”, low to high:
TUT7 | TNF reporter robust z-score: -0.29
MRGPRD | TNF reporter robust z-score: 0.17
MRGPRD | TNF reporter robust z-score: 0.6
KCTD1 | TNF reporter robust z-score: 0.69
MRGPRD | TNF reporter robust z-score: 0.78
KCTD1 | TNF reporter robust z-score: 1.84
KCTD1 | TNF reporter robust z-score: 2.51
KCTD1 | TNF reporter robust z-score: 2.9 (active)
